Results as given in patent US20120122692A1, “Method and Formulation for Eliminating Moss with Oregano Oil” (priority 2006, published 2012).
Some of these results come from one statement about several compounds together. Some compounds share one range, which may span the group rather than tell each member.

system: silvery thread moss; experiment: Field test of spray treatments on silvery thread moss in a creeping bentgrass putting green: percent moss cover; assay type: in vivo, Bryum argenteum; conditions: 9 Oct (Oct. 9, 2006)
Protocol: Aqueous solutions of oregano oil extract were tested on silvery thread moss growing on turf grass. The turf grass was a mature stand of “Penncross” creeping bentgrass Agrostis stolonifera L. on a sand based rootzone. IA grid of six inch square plots were arranged on the turf. Each plot was initially rated for percent moss cover on July, 2006. Only plots with greater than 50% moss cover tracked for this test. Table 1 summarized the 79 treatments tested. Oregano oil extract formulations were compared with carefentrazone and a non-treated control. Several oregano oil formulation includes a surfactant, and these formation are marked as ORG AS, ORG BS, ORG CS, and ORG DS. Each formulation was applied as a squirt or pump from a spray bottle containing the formulation. The spray bottle used was one quart bottle that delivered 2.8 ml per pump onto a four inch square are. All of the formulations were applied at least once on Jul. 6, 2006. Sequential applications were also additionally performed bi-weekly on Jul. 20, Aug. 17 and Sep. 12, 2006 for a total of one, three, or four bi-weekly application. Each carefentrazone application was made at a recommended rate of 6.7 fl. Oz. product/A.
The data from the test were analyzed using PROC ANOVA of the SAS software, Version 8 of the SAS System for Windows (SAS Institute, 1999). Means were separated (alpha=0.05) by Fischer's protected LSD (Fischer, 1966). Turf quality was rated on a scale of 1-10, where 10=best turf with no phyoxicity, 6=lowest acceptable turf quality and turf phytotoxicity, 1=worst turf quality with most phytotosixity and completely brown turf.

| Compound | % Moss Cover |
| --- | --- |
| Cc1nn(-c2cc(CC(Cl)C(=O)O)c(Cl)cc2F)c(=O)n1C(F)F (stereo not drawn) [ES11, Carfentrazone] | 48-77% |
| Cc1nn(-c2cc(CC(Cl)C(=O)O)c(Cl)cc2F)c(=O)n1C(F)F (stereo not drawn) [ES13, Carfentrazone] | 48-77% |
| Cc1nn(-c2cc(CC(Cl)C(=O)O)c(Cl)cc2F)c(=O)n1C(F)F (stereo not drawn) [ES16, Carfentrazone] | 48-77% |
| Cc1nn(-c2cc(CC(Cl)C(=O)O)c(Cl)cc2F)c(=O)n1C(F)F (stereo not drawn) [Treatment E11, Carfentrazone] | 48-77% |
| Cc1nn(-c2cc(CC(Cl)C(=O)O)c(Cl)cc2F)c(=O)n1C(F)F (stereo not drawn) [Treatment E13, Carfentrazone] | 48-77% |

same assay, conditions: 9 Oct (Oct. 9, 2006); listed as 316

| Compound | % Moss Cover |
| --- | --- |
| Cc1nn(-c2cc(CC(Cl)C(=O)O)c(Cl)cc2F)c(=O)n1C(F)F (stereo not drawn) [Treatment E16, Carfentrazone] | 48-77% |
